# According to PubChem BioAssay AID2685 (National Center for Advancing Translational Sciences (NCATS), 2010):
# Values joined by “and” are separate entries in the source; they are usually repeats but may differ in a detail not shown here. Equal values may be shown once. This is one part of the list. The main result of the screen is listed elsewhere. These columns were measured beside it and carry no call. The list favours compounds with an active or inconclusive main result. Words in brackets tell the shape of the fitted curve; partial curves, single points and poor fits give uncertain potencies.
# Assay: qHTS Assay for Lipid Storage Modulators in Drosophila S3 Cells;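 on cell number change: cells counted by Cell Tracker Red CMTPX staining in the red channel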
# Details: BODIPY lipid droplet fluorescence, 18-24 h; for cell number change: measured here: cell count max response, cells fed with added oleic acid
# Procedure, shortened: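 Drosophila S3 cells loaded with oleic acid (400 uM, as added) and compounds at several concentrations; lipid droplets imaged by 488-nm laser-scanning cytometry, 500–530 nm intensity and object ratio to cell channel. Percent activity normalized to 20 uM Triacsin C.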
# [1] = measured here: cell number channel AC50, cells fed with added oleic acid
# [2] = measured here: lipid fluorescence (Fed channel) AC50, cells fed with added oleic acid
SMILES,cell number change,AC50 [1],AC50 [2]
CCOc1ccccc1OCC(=O)Nc1ccc(Cl)cc1C(=O)c1ccccc1,6.9%,"1.16 µM [rising, partial curve, poor fit]","1.84 µM [rising, partial curve, poor fit]"
C=CCn1c(O)c(C=NCCN2CCNCC2)c(=O)[nH]c1=O,-56.5%,"29.1 µM [falling, single point]","0.82 µM [falling, partial curve]"
CC12CN3CC(c4ccccc4)(CN(C1)C31CCCCC1)C2=O,–,–,"0.651 µM [falling, full curve, poor fit]"
COc1ccccc1OP(=O)(Nc1ccc(Br)cc1)Oc1ccccc1OC,-23.6%,–,"16.4 µM [falling, single point]"
COC(=O)C1=C(c2ccc(Cl)c(C(F)(F)F)c2)C[C@@H]2CC[C@H]1N2C(=O)N1CCOCC1,11.1%,–,"0.00461 µM [rising, full curve, poor fit]"
CCOC(=O)c1c(/N=C/C2C(=O)NC(=O)NC2=O)sc2c1CCC2,23.1%,"0.092 µM [rising, full curve, poor fit]",–
CCC1(CCCC(=O)c2ccc(F)cc2)C(=O)NC(=S)NC1=O,2.69%,–,"0.731 µM [falling, single point]"
Cc1cc(C(=O)C[N+]23CCN(CC2)CC3)c(C)n1-c1ccc(Br)cc1,-24.7%,–,"1.64 µM [falling, partial curve]"
CCN1CCN(c2ccc(N)c(C)c2)CC1,40.3%,"29.1 µM [rising, single point]",–
CCCNC(=O)c1c(N)n(Cc2ccco2)c2nc3ccccc3nc12,-15.5%,–,"3.66 µM [rising, full curve]"
CC(=O)Nc1ccc(OC(=O)N(C)c2ccc(C)cc2)cc1,-8.81%,–,–
CC(=O)O[C@@]12CO[C@@H]1C[C@H](OC1OCC(O)C(O)C1O)[C@@]1(C)C(=O)[C@H](O)C3=C(C)[C@@H](OC(=O)[C@H](O)[C@@H](NC(=O)c4ccccc4)c4ccccc4)C[C@@](O)([C@@H](OC(=O)c4ccccc4)C12)C3(C)C (stereo partly drawn),-12.9%,–,–
Cc1cc(C(=O)Nc2ccc3c(c2)OCCO3)nn1C(C)(C)C,22.8%,–,"13 µM [rising, partial curve]"
COc1cc(Cc2ccc(N)c(OC)c2)ccc1N,–,"4.61 µM [rising, partial curve]",–
O=P(O)(CN1CCCCC1)CN1CCCCC1,–,"25.9 µM [falling, partial curve]",–
Cc1ccc2c(c1)CC1(CN2C)C(=O)NC(=O)N(c2cccc(C)c2C)C1=O (stereo not drawn),–,"0.326 µM [rising, full curve]",–
Cn1c(O)c(Cc2cccc(Cl)c2Cl)c(=O)n(C)c1=O,32.6%,"32.6 µM [rising, single point]",–
CN1CC2([N+](=O)[O-])CC=C(Cl)C([N+](=O)[O-])(C1)C2 (stereo not drawn),78%,"4.11 µM [falling, single point]",–
O=Cc1cc(Br)c(OC(=O)N2CCOCC2)c(Br)c1,–,"32.6 µM [falling, single point]",–
CCCCCn1c(=O)c(C(=O)NCCc2ccccc2)c(O)c2ccccc21,22.6%,–,–

SMILES,cell number change,AC50 [1],AC50 [2]
c1ccc(-c2nc(N3CCOCC3)s[n+]2-c2ccccc2)cc1,-16.6%,–,"29.1 µM [falling, single point]"
COC(=O)C1=C(c2cccc(C#N)c2)C[C@@H]2CC[C@H]1N2C(=O)NCCc1ccccc1,-11.1%,–,"23.1 µM [rising, single point]"
CC(=O)OC[C@]12CCC(C)=C[C@H]1O[C@@H]1[C@H](O)[C@@H](OC(C)=O)[C@@]2(C)[C@]12CO2,-44.7%,"0.0517 µM [falling, full curve]","0.0206 µM [falling, full curve]"
O=C1NC(=O)C2(Cc3ccccc3N3CCOCC32)C(=O)N1c1ccccc1 (stereo not drawn),5.19%,"0.731 µM [falling, full curve]","0.731 µM [falling, full curve]"
CN1CCN(c2ccc(NC(=O)Oc3ccccc3)cc2)CC1,-47.9%,–,"11.6 µM [falling, partial curve]"
O=c1oc2cccnc2n1CCS(=O)(=O)c1ccc(F)cc1,–,"0.0517 µM [falling, partial curve, poor fit]",–
O=C(c1ccco1)c1cn(Cc2ccccc2)c2ccccc12,87.3%,"16.4 µM [rising, partial curve]","6.51 µM [rising, single point]"
Brc1ccc(C2N3CCCN23)cc1 (stereo not drawn),–,"0.103 µM [rising, full curve, poor fit]",–
c1ccc2oc(N3CCNCC3)nc2c1,37.9%,"2.06 µM [rising, full curve]","2.06 µM [rising, partial curve]"
O=C(N/N=C/c1c(O)n(-c2ccccc2)c(=S)[nH]c1=O)c1ccccc1,36.3%,"4.61 µM [rising, partial curve]","14.6 µM [rising, partial curve, poor fit]"
CCCC/C(=N/O)c1c(C)[nH]c2ccccc12,-6.03%,–,–
C[N+]12CCC(CC1)C(C(O)(c1ccccc1)c1cccs1)C2 (stereo not drawn),-17.7%,–,"0.731 µM [falling, full curve]"
COC(=O)C1=C(c2cccc(OCc3ccccc3)c2)C[C@@H]2CC[C@H]1N2C(=O)NCc1ccccc1,4.11%,–,"29.1 µM [falling, single point]"
COC(=O)C1=C(c2ccc(C(C)=O)cc2)C[C@@H]2CC[C@H]1N2C(=O)NCCNC(C)=O,-2.7%,"0.164 µM [falling, full curve, poor fit]","3.26 µM [rising, partial curve, poor fit]"
c1ccc(Nc2ccc(Nc3ccccc3)cc2)cc1,-16.5%,"0.326 µM [falling, partial curve, poor fit]","0.116 µM [rising, single point]"
O=c1[nH]c(Cl)ccc1CN1CCOCC1,-1.97%,–,"10.3 µM [rising, partial curve]"
Nc1ccc([N+](=O)[O-])cc1,-6.44%,–,"0.206 µM [rising, full curve, poor fit]"
O=P(OCC(F)(F)C(F)F)(N1CCOCC1)N1CCOCC1,8.55%,–,"3.66 µM [falling, partial curve, poor fit]"
COC(=O)c1cccc(NC(=O)N2C[C@H]3C[C@@H](C2)c2cccc(=O)n2C3)c1,-9.12%,–,–
FCCN(CCF)c1cccc(Cl)c1,11%,"3.66 µM [rising, single point]",–

# Random excerpt: 2 entries already listed
SMILES,cell number change,AC50 [1],AC50 [2]
CCCC/C(=N/O)c1c(C)[nH]c2ccccc12,-6.03%,–,–
O=c1[nH]c(Cl)ccc1CN1CCOCC1,-1.97%,–,"10.3 µM [rising, partial curve]"

# Going on with the list.

SMILES,cell number change,AC50 [1],AC50 [2]
O=C(CCC(=O)N1C[C@H]2C[C@@H](C1)c1cccc(=O)n1C2)NCc1ccccc1C(F)(F)F,–,–,"14.6 µM [rising, partial curve, poor fit]"
CCOc1cccc(OCC)c2c(C)[n+](CC3CCCO3)c(C)c1-2 (stereo not drawn),8.75%,–,"23.1 µM [falling, partial curve]"
COc1cccc(N2CCN(S(=O)(=O)c3ccc4c(c3)oc(=O)n4C)CC2)c1,–,"29.1 µM [rising, single point]",–
CCc1ccc(NP(=O)(Oc2ccccc2F)Oc2ccccc2F)cc1,-4.04%,–,"6.51 µM [rising, single point]"
Cc1cccc(NC(=O)N2CC3CC(C2)c2cccc(=O)n2C3)c1 (stereo not drawn),-0.289%,–,–
COC(=O)C1=C(c2cccc(C#N)c2)C[C@@H]2CC[C@H]1N2C(=O)NCCOc1ccc(OC)cc1,-32.3%,"6.51 µM [falling, partial curve]","9.2 µM [falling, partial curve, poor fit]"
CN(C)c1ccc(-[n+]2c(-c3ccccc3)cc(-c3ccccc3)cc2-c2ccccc2)cc1,-9.19%,–,"1.16 µM [falling, partial curve]"
CC(=O)c1ccc2c(c1)C1C(Cl)C(Sc3ccccc3[N+](=O)[O-])CC1C(C(=O)O)N2 (stereo not drawn),25.8%,–,–
COC(=O)C1=C(c2ccc(Cl)c(C(F)(F)F)c2)C[C@@H]2CC[C@H]1N2C(=O)N1CCC(C)CC1,-52.8%,"18.4 µM [falling, single point]","0.82 µM [rising, single point]"
COC(=O)CN1C(=O)CN=C(c2ccccc2Cl)c2cc(Br)ccc21,22.3%,"0.291 µM [rising, full curve, poor fit]","0.116 µM [rising, full curve, poor fit]"
CNP1(NC)=Nc2nn(-c3ccccc3)c(N)c2C(c2ccccc2)=N1,15.4%,"0.291 µM [rising, full curve, poor fit]","20.6 µM [rising, single point]"
CN1CCC2(CC1)C(C#N)=C(N)NC(S)=C2C#N,-39.6% and 15.4%,"18.4 µM [falling, partial curve]","16.4 µM [falling, partial curve]"
CNCCc1c(C)n[nH]c1C,4.05%,–,–
CC12CN3CCN(CC(C3)C1O)C2 (stereo not drawn),–,–,"6.51 µM [rising, single point]"
Nc1ccncc1Cl,-34.7%,"20.6 µM [falling, single point]",–
[O-][n+]1onc2c1CCC1N(O)CCC21O (stereo not drawn),-9.13%,–,"2.91 µM [falling, full curve]"
CCC(C)n1c(C)cc(C(N)=O)c1C (stereo not drawn),-1.49%,–,–
Cc1ccc(C(C)C)c(OCC#CCN2CCCC2)c1,-15.6%,–,–
Cc1ccc(NP(=O)(Nc2ccc(C)cc2)Oc2ccccc2)cc1,33%,"32.6 µM [rising, single point]","29.1 µM [rising, single point]"
